Assay results taken from PubChem BioAssay AID540256 (National Center for Advancing Translational Sciences (NCATS), 2011).
The campaign covered roughly 300,000 compounds. About 3,700 (1.2%) were called active. Inconclusive means that the source gave no clear call. Such entries were picked first, then a sample of the others. Calls come from the whole dose curve; tested in HEK293 cells. Where the call is inconclusive, the potency comes from a doubtful curve fit.

Assay: qHTS for Inhibitors of binding or entry into cells for Lassa Virus; note: nearly all actives have a fitted effect of over 50% in size
Settings: Lassa virus pseudotype entry inhibition, cell reporter; activity change, negative = inhibition: at 37.9 µM (top of the series) unless noted
% is set by controls: 0 for no effect and ±100 for the full control effect; potency is the fitted concentration of half-maximal effect.

SMILES	Potency	activity change, negative = inhibition
CC(NC(=O)C(Cc1ccccc1)N1C(=O)C2C3CCC(C3)C2C1=O)c1ccccc1 (stereo not given)	inconclusive: 0.517 µM [activator, full curve, poor fit]	–
CC(=O)c1ccc(NC(=O)c2cc(-c3ccc(C)s3)nc3ccccc23)cc1	–	inactive: 26.7% [at 46.1 µM]
OCCN1CCN(Cc2nc(-c3cccc(Cl)c3)no2)CC1	inconclusive: 14.1 µM [activator, single point]	–
CCNC(=O)CCc1nc(-c2ccc(C(C)(C)C)cc2)no1	active: 11.2 µM	–
CC1Cc2ccccc2N1C(=O)c1ccc(N2CCCC2)c([N+](=O)[O-])c1 (stereo not given)	inconclusive: 8.91 µM [inhibitor, partial curve, poor fit]	–
C=C(CCN1C=C(C(=O)OCC)C(c2ccccc2)NC1=O)OC (stereo not given)	inconclusive: 0.841 µM [activator, single point]	–
CCOc1ccc(C(=O)COC(=O)C2COc3ccccc3O2)cc1 (stereo not given)	inconclusive: 6.31 µM [inhibitor, single point]	–
O=C(CSc1nc2c([nH]c3ccccc32)c(=O)n1-c1ccccc1)N1CCc2ccccc21	–	inactive: -11.7% [at 46.1 µM]
COc1ccc(C2C(=O)N(C3CCCCCC3)CC(=O)N2Cc2ccc(C)cc2)cc1 (stereo not given)	inconclusive: 1.58 µM [inhibitor, full curve, poor fit]	–
CC(C)CN(C1CCS(=O)(=O)C1)S(=O)(=O)c1ccc(C(C)C)cc1 (stereo not given)	inconclusive: 11.2 µM [inhibitor, partial curve, poor fit]	–
C/C(=N\NC(=O)c1cc(-c2cccc([N+](=O)[O-])c2)n[nH]1)c1ccccc1O	inconclusive: 35.5 µM [inhibitor, single point]	–
Cc1ccc(S(=O)(=O)n2nc(-c3ccccc3)nc2NCc2ccc(Cl)cc2)cc1	–	inactive: -19.4% [at 46.1 µM]
Cc1cccc(Nc2nnc(SCC(=O)NC3CCCc4ccccc43)s2)c1C (stereo not given)	inconclusive: 29.1 µM [inhibitor, single point]	–
Cc1ccc([N+](=O)[O-])c(OCCN2CCC(Cc3ccccc3)CC2)c1	inconclusive: 31.6 µM [inhibitor, single point]	–
CCOC(=O)C1CCCN(C(=O)Cn2cnc3c2c(=O)n(C)c(=O)n3C)C1 (stereo not given)	inconclusive: 20.6 µM [activator, single point]	–
CCOC(=O)C1CCN(C(=O)COc2cccc(C)c2)CC1	–	inactive: 5.49%
CC(C)C[C@H]1C(=O)N2CCC[C@H]2[C@]2(O)O[C@](NC(=O)[C@@H]3C=C4c5cccc6[nH]c(Br)c(c56)CC4N(C)C3)(C(C)C)C(=O)N12 (stereo not given in full)	inconclusive: 29.1 µM [inhibitor, single point]	–
COc1cc(NC(=O)CCc2c(C)nn(-c3ccc4nnc(C)n4n3)c2C)cc(OC)c1OC	inconclusive: 0.891 µM [activator, full curve, poor fit]	–
COCCNC(=S)Nc1ccccc1[N+](=O)[O-]	inconclusive: 11.2 µM [inhibitor, partial curve, poor fit]	–
COc1ccc(NC(=O)[C@@]2(CC(=O)O)CC(/C=C/c3ccccc3)=NO2)cc1	inconclusive: 5.62 µM [inhibitor, single point]	–
CN(C)CCNC(=O)C1CCN(Cc2cc3ccccc3n2Cc2ccccc2)CC1	inconclusive: 35.5 µM [inhibitor, single point]	–
O=C1C=C(NCCN2CCOCC2)C(=O)c2cnccc21	inconclusive: 5.8 µM [inhibitor, full curve, poor fit]	–

SMILES	Potency	activity change, negative = inhibition
NNC(=O)c1oc2nc(-c3ccc(Cl)cc3)cc(-c3ccccc3)c2c1N	inconclusive: 0.891 µM [inhibitor, full curve, poor fit]	–
COc1ccc(/C=C/C(=O)NNC(=O)c2cc(C)oc2C)cc1	inconclusive: 20 µM [activator, partial curve, poor fit]	–
O=c1c([N+](=O)[O-])cccn1Cc1ccccc1Cl	inconclusive: 35.5 µM [inhibitor, single point]	–
O=C(Nc1ccc(N2C(=O)C3C4C=CC(C4)C3C2=O)cc1Cl)c1cccs1 (stereo not given)	–	inactive: 18% [at 46.1 µM]
COc1ccc(Nc2nc(N)nc(N)c2S(=O)(=O)c2ccccc2)cc1	–	inactive: -8.37% [at 46.1 µM]
COc1cc(/C=C/C(=O)OC(C)C(=O)Nc2ccc(Cl)cn2)ccc1OC(F)F (stereo not given)	–	inactive: -7.11%
Cc1ccc(-c2cc(-c3ccccc3)nc(N/N=C/c3cccnc3)n2)cc1	–	inactive: -19.3% [at 14.3 µM]
OC1(c2cccc(C(F)(F)F)c2)CCN(c2ccc(-c3ccccc3)nn2)CC1	inconclusive: 3.66 µM [activator, partial curve, poor fit]	–
CCSc1nc(NCCN(C)C)c2c3c(sc2n1)COC(C)(CC)C3 (stereo not given)	–	inactive: -28.2%
OCCC1CN(Cc2c(O)ccc3ccccc23)CCN1CCc1ccccc1 (stereo not given)	–	inactive: -3.08% [at 46.1 µM]
Cc1cc(NCCN2CCOCC2)n2nc(C)c(-c3ccc(Cl)cc3)c2n1	inconclusive: 35.5 µM [inhibitor, single point]	–
O=C1Nc2ccc(C(=O)c3ccco3)cc2/C1=C/c1cc(Cl)c(O)c(Cl)c1	active: 3.15 µM	–
CCOCCCNc1ncc2c(n1)CC(c1ccc(C)cc1)CC2=O (stereo not given)	inconclusive: 12.6 µM [inhibitor, partial curve]	–
CCCn1c(=O)sc2cc(NC(=O)c3ccc(OC)c(Br)c3)ccc21	inconclusive: 10 µM [inhibitor, partial curve]	–
O=C1NC(=O)N(CCc2ccc(F)cc2)C(=O)/C1=C/C=C/c1ccccc1	inconclusive: 11.2 µM [activator, partial curve, poor fit]	–
CC1CN(S(=O)(=O)c2ccc(C(=O)N3c4ccccc4CC3C)cc2)CC(C)O1 (stereo not given)	–	inactive: -1.47%
COc1ccc(NC(=O)c2c(NCc3sccc3C)sc3c2CCCC3)c(OC)c1	inconclusive: 11.2 µM [inhibitor, single point]	–
CCc1nn2c(=O)cc(COC(=O)CNC(=O)COc3ccc(C)cc3)nc2s1	inconclusive: 35.5 µM [activator, single point]	–
O=C(Nc1ccc(Nc2ccccc2)cc1)C1CC1	inconclusive: 29.1 µM [activator, single point]	–
O=C(NCC1CC1)[C@@H]1C[C@H]1[C@@H](NP(=O)(c1ccccc1)c1ccccc1)c1ccccc1	inconclusive: 4.11 µM [inhibitor, full curve, poor fit]	–
O=C(CSc1nc2c(sc3ccccc32)c(=O)n1CCCN1CCCC1)NCc1ccccc1	inconclusive: 22.4 µM [inhibitor, single point]	–
Cc1ccc(-n2nc(CO)c(C(=O)NC(C)CCCc3ccccc3)n2)cc1 (stereo not given)	–	inactive: -26% [at 46.1 µM]

One compound at a time, from the list above. Order of values: Potency	activity change, negative = inhibition
Cc1ccc(-n2nc(CO)c(C(=O)NC(C)CCCc3ccccc3)n2)cc1 (stereo not given) is listed as –	inactive: -26% [at 46.1 µM]
CCCn1c(=O)sc2cc(NC(=O)c3ccc(OC)c(Br)c3)ccc21 is listed as inconclusive: 10 µM [inhibitor, partial curve]	–

The results go on.

SMILES	Potency	activity change, negative = inhibition
Cc1ccc(NC(=O)NCCCN2CCCC2=O)cc1	–	inactive: 14.8%
O=S(=O)(c1ccc2ccccc2c1)N1CCCOC1	–	inactive: -1.35%
CC(C)(C)c1ccc(-c2ncccc2O)cc1	inconclusive: 0.794 µM [inhibitor, full curve, poor fit]	–
COc1ccc(CCNC(=O)c2ccc3c(c2)CCN3S(=O)(=O)c2ccc(C)cc2)cc1	inconclusive: 15.8 µM [inhibitor, single point]	–
Fc1ccc(CNC(=S)NCc2cccc(Cl)c2)cc1	inconclusive: 35.5 µM [inhibitor, single point]	–
CCOc1ccccc1NC=C1C(=O)OC(C)(C)OC1=O	inconclusive: 20.6 µM [activator, partial curve, poor fit]	–
COc1ccc(-c2nsc(SCC(=O)NCc3ccc4c(c3)OCO4)n2)cc1	inconclusive: 7.08 µM [activator, full curve, poor fit]	–
CCOc1ccc(-c2c(C)n(-c3ccc(OCC)cc3)c3[n+]2CCCCC3)cc1	inconclusive: 6.31 µM [inhibitor, full curve, poor fit]	–
Cc1c(C(=O)C(=O)NCCC2=CCCCC2)c2ccccc2n1C	–	inactive: 12.3%
Cc1ccc(S(=O)(=O)Nc2cccc(C(=O)NCC(c3ccccc3)N(C)C)c2)cc1F (stereo not given)	inconclusive: 35.5 µM [inhibitor, single point]	–
Cc1ccc(Nc2nc(CSc3nnc(-c4ccncc4)n3C)cs2)cc1	inconclusive: 11.2 µM [inhibitor, partial curve]	–
O=c1c2ccccc2n(Cc2ccccc2Cl)c(=O)n1CCc1ccccc1	inconclusive: 10 µM [activator, partial curve, poor fit]	–
CCC(=NCCC(c1ccccc1)c1ccccc1)c1c(O)[nH]c(=O)[nH]c1=O	inconclusive: 25.1 µM [inhibitor, single point]	–
Cc1ccc(C(=O)NCC(=O)OCC(=O)N(CC(C)C)c2c(N)n(Cc3ccccc3)c(=O)[nH]c2=O)cc1C	inconclusive: 5.62 µM [inhibitor, partial curve, poor fit]	–
COc1cccc(NC(=O)CSC2=Nc3ccccc3C3=NC(CCC(=O)NCCc4ccccc4)C(=O)N23)c1 (stereo not given)	–	inactive: -10% [at 46.1 µM]
Cc1cc(C(=O)N/N=C/c2c(C)[nH]c3ccccc23)n[nH]1	–	inactive: 0.31%
O=C(/C=C\c1ccccc1)Nc1nccs1	inconclusive: 6.51 µM [activator, single point]	–
COC(=O)C(Cc1ccc(OC(=O)c2ccc(C)cc2)cc1)N1Cc2ccccc2C1=O (stereo not given)	–	inactive: -11%
CC1CCCCN1C(=O)Cn1cc(C=C2C(=O)N(C)C(=O)N(C)C2=O)c2ccccc21 (stereo not given)	–	inactive: -3.55%
Cc1cc(N2CCN(c3nc4ccccc4s3)CC2)n2ncnc2n1	inconclusive: 14.6 µM [inhibitor, partial curve, poor fit]	–
O=C(Nc1ccccc1)C(=O)Nc1ccc2c(c1)N(C(=O)C1CC1)CCC2	inconclusive: 7.94 µM [inhibitor, partial curve, poor fit]	–
